Reference: paper PMC10163288
This is one part of the list.

B1: il2ra_site2_3nfp_normal_mot_HHH_b2_00746_000000285_0001_20_36_H_._HHH_b1_03508_0001_0000200007_0000001_0 (protein)
chain: SSSSDEEELERLLREIEEAVERGDEELFRKLAQELTNLIYELGDHEAFARLNELIERFIRGSSSS
B2: il2ra_site2_3nfp_sap_10_mot_HHH_b2_06904_af2_000000235_0001_1_14_H_._1d6b5438aa0d917bea2962dcb63062e6_0001_1_af2_0001_0000300046_0000001_0_0001 (protein)
chain: SSSSNMRELILRAAKEFAEEANDPEVLREIEELEEEYRREGDPEYVRRAFELAQELAEKQSSSSS
B3: il2ra_site2_3nfp_sap_19_mot_HHH_b1_04031_af2_000000136_0001_1_21_H_._HHH_b1_03651_0001_0000100008_0000001_0_0001 (protein)
chain: SSSSSKSEEYLRLAIELAKEAEEQGDPEAAREHLEIALLAAELLNDEEIREEVERLLEEVSSSSS
B4: il2ra_site2_3nfp_sap_13_mot_HHH_b2_00236_af2_000000197_0001_23_39_H_._HHH_b1_04954_0001_0000300022_0000001_0_0001 (protein)
chain: SSSSSSSEEEVEKALQDARHAEDPEHARLALRLALAHALVFGDEELRKEIEELLEKLNSSSSSSS
B5: il2ra_site1_3nfp_normal_mot_cdc2c7e6ec3782e52408388447766025_0001_af2_000000293_0001_19_33_H_._2f69edf39d0b4cbfc537af338e4f3bc0_0001_af2_0001_0000200013_0000001 … (protein)
chain: PAVEFFFRAAKKSGISPEKIAKKLLEDAERALGDPEKAKELLKEFLEKLLGDPEEAEELLEEAEK
B6: il2ra_site2_3nfp_sap_22_mot_HHH_b1_02297_000000279_0001_41_58_H_._HHH_b1_00061_0001_0000500028_0000001_0_0001 (protein)
chain: SSSDESEEIFEEARKELERLLEEGDRKEASELTWEALRLLQELGDWRLVAKLYEILVRAYRSSSS
B7: il2ra_site2_3nfp_normal_mot_HHH_b1_00660_af2_000000090_0001_40_57_H_._HHH_b2_02332_0001_0000400063_0000001_0_af2pred_0001_1_af2pred_swapped (protein)
chain: SSSSSSEEVEELLKEAQRLLEEGDPEEARRVLHRAATIAAELGDHELFAELLNLLEKIESSSSSS
B8: il2ra_site1_1z92_normal_mot_1581cc1c700002558836ca695aafbf97_0001_1_af2_000000099_0001_17_32_H_._HHH_b2_05050_0001_0000200016_0000001_0 (protein)
chain: SSSSDEEVERLVEELVREFNLSERQERSLRIAARAAEEFGADPRVVERDLERFVEFLKRKGSSSS
B9: il2ra_site2_3nfp_normal_mot_HHH_b2_03978_000000149_0001_1_20_H_._89d51094ace004f14de90db6817c454c_0001_0001_0000500017_0000001_0 (protein)
chain: SELLRLAAEAYRRGDEELFALVSEAVHALEQGVPPEEIEELLEERAKAAGIPPEVLELVEEAVRT
B10: il2ra_site2_2erj_sap_24_mot_a018c15928f351c43b00908d5a7ba3e0_0001_000000190_0001_17_32_H_._64acf9c47b58a7ae4252630f76d6e6b2_0001_1_0001_0000300012_0000001_0_000 … (protein)
chain: SSSSDLEEEAERLVEELVREFGADERDELFLRSLAKKLARAGLSPEEIERALRESIEATRSSSSS
B11: il2ra_site1_3nfp_normal_mot_HHH_b1_00232_af2_000000283_0001_22_38_H_._HHH_b2_06365_0001_0000100005_0000001_0_af2pred_0001_af2pred_1 (protein)
chain: SSSSSSDAEELALELAQEAYERGDEERARKLLERFLEDLKRFNNEDNFEEVEELLKELSSSSSSS
B12: il2ra_site2_2erj_normal_mot_6bd1339e93f6fdda22195c76da45ec5d_0001_000000136_0001_37_51_H_._HHH_b2_00810_af2_0001_0000100002_0000001_0_1_af2pred_0001_1_af2pred_s … (protein)
chain: SSSSDEEYREEVEELLEEAKEIEDPEEAASVLSEAMELAHEGRDEELLRLVSKVFTRLARGSSSS
B13: il2ra_site2_2erj_sap_33_mot_HHH_b2_01204_af2_000000056_0001_19_34_H_._HHH_b2_00547_0001_0000600024_0000001_0_0001 (protein)
chain: SSSSSDELREAYELANILSHLVARNDREEFERISEEFEELVERLDSENAREILESLKRLISSSSS
B14: il2ra_site2_2erj_sap_29_mot_ems_p1-14H-GABBL-16H-GABBL-15H_0014_0001_0001_0001_000000124_0001_40_55_H_._31027dcbc75156a1ce7eef07f04df53c_0001_af2_0001_000070001 … (protein)
chain: LEEEVLRAASIAIELAEKFSDDPEIFRLVAEAFTALARALEENDEEKIREVIEKIEEIKEEADSS
B15: il2ra_site2_3nfp_sap_17_mot_HHH_b1_02574_af2_000000209_0001_1_20_H_._2243060a2d62806e8f4e40d139fea760_0001_0001_0000500010_0000001_0_0001 (protein)
chain: SSSSNAEEYLKAVLELIRLALEEGDRETAEKLIKLLKQAIEDNNDEEARKELERLEEEVNSSSSS
B16: il2ra_site1_3nfp_normal_mot_HHH_b2_02159_000000237_0001_1_17_H_._ems_3hM_790_0001_0000300041_0000001_0_af2pred_0001_af2pred (protein)
chain: SSDEFFEELVRRVTKLAEEKNDEEVRELAEKALELWKEARENRDHEAAHEALRIVAKLQNLVLSS
B17: il2ra_site1_3nfp_sap_16_mot_1cdf5118dc85af3c372083cb498ffdc5_0001_af2_000000279_0001_1_12_H_._cff26900b2948c323735a169404cbef0_0001_1_0001_0000500014_0000001_1_ … (protein)
chain: DLEELEKEARELGNPAIQELLELIKEAERTKDPELSREILKLVAKLLLRGLIPPEFVEELAKLLA
B18: il2ra_site2_2erj_normal_mot_c2bf78bdce995293a161f7082e24b401_0001_af2_000000082_0001_17_32_H_._HHH_b2_01862_0001_0000700049_0000001_0 (protein)
chain: SSSSSDVEEEVQRLLEEAEEAYEEGDLELVYELANEALHLASRHQDEEAQRLIWEVFERLSSSSS
B19: il2ra_site2_2erj_normal_mot_HHH_b2_00789_000000198_0001_40_54_H_._HHH_b2_03822_0001_0000200007_0000001_0 (protein)
chain: SSSSSSEDEERVRELLEQAEETSDLEEAYRLLVEALQVAYESGDEELQRLVMEVAERLANSSSSS

Target: il2ra, P01589
Assay: yeast display titration

Apparent Kd, inactive:
B1 no binding seen, B2 no binding seen, B3 no binding seen, B4 no binding seen, B5 no binding seen, B6 no binding seen, B7 no binding seen, B8 no binding seen, B9 no binding seen, B10 no binding seen, B11 no binding seen, B12 no binding seen, B13 no binding seen, B14 no binding seen, B15 no binding seen, B16 no binding seen, B17 no binding seen, B18 no binding seen, B19 no binding seen
